According to the supplement of paper PMC10849652:
The other results are listed elsewhere or left out.

Amino acid sequences for entries named in this document (tags omitted). A change or cut given only in a name is not applied to a line headed by its entry.
UniProt Q96IZ7: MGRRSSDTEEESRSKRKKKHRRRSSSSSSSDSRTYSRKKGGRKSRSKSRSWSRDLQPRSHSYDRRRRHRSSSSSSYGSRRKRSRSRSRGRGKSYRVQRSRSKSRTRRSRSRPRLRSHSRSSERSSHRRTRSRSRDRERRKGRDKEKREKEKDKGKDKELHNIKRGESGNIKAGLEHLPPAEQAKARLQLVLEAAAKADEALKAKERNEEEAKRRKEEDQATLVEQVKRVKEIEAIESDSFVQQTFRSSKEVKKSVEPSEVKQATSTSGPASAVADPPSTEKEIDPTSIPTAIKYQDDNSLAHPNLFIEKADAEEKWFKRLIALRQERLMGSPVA
UniProt Q9H446: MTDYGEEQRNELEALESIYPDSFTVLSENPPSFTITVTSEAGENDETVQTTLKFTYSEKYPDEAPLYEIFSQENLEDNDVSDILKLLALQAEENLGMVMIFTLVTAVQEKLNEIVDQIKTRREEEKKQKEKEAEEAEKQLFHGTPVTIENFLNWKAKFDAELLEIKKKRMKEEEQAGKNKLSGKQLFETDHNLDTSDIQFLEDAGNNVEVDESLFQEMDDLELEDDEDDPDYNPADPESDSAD
UniProt Q9HCN8: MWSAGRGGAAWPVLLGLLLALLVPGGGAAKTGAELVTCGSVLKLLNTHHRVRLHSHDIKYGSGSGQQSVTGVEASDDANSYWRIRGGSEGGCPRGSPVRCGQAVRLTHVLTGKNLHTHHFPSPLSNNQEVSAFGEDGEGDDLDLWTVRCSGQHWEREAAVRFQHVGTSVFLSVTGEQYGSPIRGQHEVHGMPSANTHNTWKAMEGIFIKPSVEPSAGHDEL
UniProt P82979: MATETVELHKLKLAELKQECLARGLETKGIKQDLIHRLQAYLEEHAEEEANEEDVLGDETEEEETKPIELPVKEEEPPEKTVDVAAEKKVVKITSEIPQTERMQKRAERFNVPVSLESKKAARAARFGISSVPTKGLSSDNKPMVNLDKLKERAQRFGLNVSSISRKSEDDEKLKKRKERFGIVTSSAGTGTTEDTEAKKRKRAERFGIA
UniProt Q9UBE0: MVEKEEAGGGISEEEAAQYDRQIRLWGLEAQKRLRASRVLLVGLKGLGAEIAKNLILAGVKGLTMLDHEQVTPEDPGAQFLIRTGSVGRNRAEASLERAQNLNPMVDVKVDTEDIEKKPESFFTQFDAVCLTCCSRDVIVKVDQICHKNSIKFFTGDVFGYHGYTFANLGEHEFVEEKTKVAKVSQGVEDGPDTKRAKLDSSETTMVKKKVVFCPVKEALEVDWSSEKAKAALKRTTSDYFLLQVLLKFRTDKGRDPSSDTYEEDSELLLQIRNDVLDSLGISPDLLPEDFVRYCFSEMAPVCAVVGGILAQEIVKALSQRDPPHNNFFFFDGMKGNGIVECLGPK
UniProt Q0VDG4: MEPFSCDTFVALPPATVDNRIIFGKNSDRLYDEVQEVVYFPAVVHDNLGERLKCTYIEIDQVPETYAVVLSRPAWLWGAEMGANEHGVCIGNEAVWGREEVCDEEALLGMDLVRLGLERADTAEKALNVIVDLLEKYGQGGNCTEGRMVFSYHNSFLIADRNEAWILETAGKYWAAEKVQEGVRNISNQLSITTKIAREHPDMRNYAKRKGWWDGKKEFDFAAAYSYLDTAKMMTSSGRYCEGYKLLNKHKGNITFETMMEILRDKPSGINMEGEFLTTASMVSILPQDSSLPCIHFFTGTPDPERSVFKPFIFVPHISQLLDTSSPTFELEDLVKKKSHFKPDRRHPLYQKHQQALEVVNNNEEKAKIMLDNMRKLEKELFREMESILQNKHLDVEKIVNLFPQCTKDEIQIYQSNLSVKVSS
UniProt O15127: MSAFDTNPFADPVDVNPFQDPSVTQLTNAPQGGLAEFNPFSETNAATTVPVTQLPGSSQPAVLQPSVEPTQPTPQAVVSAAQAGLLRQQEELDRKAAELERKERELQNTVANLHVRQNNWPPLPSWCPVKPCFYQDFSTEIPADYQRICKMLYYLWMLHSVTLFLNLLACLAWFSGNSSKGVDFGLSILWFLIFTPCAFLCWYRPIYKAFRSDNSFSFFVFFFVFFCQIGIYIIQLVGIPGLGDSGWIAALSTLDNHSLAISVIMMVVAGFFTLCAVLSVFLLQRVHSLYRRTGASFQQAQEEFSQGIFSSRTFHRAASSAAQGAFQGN
UniProt P22307: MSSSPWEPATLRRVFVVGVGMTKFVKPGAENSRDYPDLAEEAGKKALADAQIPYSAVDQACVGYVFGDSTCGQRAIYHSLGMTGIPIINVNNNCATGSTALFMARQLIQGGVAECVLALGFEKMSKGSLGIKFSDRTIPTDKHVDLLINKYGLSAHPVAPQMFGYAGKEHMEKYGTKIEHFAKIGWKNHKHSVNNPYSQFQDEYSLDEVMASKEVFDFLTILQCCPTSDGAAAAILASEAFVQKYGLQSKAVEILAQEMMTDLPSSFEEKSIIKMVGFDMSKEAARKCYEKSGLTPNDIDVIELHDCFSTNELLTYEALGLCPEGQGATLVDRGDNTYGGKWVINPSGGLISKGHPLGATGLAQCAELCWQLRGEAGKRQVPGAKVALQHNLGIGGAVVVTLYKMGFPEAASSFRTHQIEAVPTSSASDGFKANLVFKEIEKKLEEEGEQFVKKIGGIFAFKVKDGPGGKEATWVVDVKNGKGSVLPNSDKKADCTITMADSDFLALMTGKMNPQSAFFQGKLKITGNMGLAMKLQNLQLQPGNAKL
UniProt Q8WTV0: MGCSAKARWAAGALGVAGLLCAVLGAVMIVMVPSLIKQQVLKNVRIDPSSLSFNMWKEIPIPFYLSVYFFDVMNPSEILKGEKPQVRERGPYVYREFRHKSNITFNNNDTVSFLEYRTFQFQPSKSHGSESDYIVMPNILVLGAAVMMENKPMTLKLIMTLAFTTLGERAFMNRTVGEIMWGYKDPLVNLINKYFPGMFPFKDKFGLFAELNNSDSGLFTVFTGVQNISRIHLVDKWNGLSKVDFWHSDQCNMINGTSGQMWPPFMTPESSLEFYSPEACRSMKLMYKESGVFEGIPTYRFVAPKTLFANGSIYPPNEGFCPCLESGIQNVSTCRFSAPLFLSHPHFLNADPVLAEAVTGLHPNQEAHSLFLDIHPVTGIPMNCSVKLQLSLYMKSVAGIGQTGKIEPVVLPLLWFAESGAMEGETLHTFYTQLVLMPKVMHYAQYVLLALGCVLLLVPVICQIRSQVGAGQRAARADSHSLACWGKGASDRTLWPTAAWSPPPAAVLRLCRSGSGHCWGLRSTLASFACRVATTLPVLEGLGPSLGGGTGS
UniProt Q8NBX0: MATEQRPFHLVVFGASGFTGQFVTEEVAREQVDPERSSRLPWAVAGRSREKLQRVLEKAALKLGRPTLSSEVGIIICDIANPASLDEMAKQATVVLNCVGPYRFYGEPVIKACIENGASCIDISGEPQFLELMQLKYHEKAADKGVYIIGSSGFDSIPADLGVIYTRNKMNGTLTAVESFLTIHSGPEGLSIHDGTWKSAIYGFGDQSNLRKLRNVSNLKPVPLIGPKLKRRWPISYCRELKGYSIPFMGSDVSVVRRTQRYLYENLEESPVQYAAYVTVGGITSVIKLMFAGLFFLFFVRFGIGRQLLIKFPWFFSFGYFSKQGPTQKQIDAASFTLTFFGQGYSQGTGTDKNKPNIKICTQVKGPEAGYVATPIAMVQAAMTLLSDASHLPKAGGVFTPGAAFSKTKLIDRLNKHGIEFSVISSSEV
UniProt Q9Y3I0: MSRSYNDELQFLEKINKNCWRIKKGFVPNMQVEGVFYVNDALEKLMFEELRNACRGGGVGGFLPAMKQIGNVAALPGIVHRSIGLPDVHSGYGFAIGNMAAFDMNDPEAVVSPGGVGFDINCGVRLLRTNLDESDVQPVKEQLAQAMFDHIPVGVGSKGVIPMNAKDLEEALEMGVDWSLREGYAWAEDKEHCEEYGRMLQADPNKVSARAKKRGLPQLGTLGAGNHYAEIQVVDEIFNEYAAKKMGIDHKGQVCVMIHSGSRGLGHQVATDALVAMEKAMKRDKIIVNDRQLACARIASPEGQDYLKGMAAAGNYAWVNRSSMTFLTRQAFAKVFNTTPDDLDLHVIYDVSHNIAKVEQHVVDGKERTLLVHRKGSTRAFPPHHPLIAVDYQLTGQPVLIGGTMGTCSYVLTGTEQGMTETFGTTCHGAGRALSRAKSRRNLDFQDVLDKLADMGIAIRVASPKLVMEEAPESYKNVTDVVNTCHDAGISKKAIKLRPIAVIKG
UniProt O75845: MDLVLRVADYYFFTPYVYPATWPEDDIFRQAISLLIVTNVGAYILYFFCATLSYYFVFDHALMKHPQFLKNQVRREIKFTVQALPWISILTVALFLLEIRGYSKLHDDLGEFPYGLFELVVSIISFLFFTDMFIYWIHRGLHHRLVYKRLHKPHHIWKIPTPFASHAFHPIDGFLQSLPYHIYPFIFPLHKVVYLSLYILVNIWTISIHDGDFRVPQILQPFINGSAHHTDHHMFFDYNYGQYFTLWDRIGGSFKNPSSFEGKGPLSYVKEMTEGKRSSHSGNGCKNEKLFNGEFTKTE
UniProt Q8WWV3: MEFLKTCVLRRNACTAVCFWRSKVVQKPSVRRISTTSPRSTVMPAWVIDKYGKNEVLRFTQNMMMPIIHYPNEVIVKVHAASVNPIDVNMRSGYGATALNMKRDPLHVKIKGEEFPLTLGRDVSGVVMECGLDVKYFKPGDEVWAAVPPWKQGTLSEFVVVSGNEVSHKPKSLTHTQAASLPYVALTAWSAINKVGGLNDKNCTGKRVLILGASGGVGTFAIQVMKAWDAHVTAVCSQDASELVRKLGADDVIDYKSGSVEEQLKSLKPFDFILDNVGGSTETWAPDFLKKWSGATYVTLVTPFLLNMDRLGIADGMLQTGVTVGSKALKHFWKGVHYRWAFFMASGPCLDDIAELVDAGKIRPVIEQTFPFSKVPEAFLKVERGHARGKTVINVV
UniProt Q15424: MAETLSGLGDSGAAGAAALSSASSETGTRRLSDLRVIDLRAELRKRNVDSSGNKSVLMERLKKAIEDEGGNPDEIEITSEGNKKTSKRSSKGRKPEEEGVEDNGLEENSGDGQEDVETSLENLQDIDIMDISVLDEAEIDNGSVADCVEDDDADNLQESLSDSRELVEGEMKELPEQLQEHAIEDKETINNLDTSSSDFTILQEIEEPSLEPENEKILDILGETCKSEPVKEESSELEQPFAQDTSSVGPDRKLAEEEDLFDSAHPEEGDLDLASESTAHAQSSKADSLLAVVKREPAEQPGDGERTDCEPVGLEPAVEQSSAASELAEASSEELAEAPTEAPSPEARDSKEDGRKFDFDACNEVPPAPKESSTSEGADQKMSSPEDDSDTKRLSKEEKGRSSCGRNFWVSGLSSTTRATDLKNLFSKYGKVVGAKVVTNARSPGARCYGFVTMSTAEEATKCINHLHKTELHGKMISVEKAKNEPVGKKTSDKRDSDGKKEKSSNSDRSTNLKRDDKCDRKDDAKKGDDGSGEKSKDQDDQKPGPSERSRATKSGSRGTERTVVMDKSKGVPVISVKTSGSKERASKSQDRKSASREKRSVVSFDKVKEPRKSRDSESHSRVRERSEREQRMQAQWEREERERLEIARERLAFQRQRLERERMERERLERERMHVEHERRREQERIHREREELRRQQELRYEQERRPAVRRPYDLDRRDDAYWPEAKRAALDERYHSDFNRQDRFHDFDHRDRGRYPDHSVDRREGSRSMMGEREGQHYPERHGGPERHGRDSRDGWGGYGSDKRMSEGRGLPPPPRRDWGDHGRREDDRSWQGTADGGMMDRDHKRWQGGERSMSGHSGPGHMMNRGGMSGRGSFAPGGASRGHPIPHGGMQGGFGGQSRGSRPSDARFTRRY
UniProt Q9Y3A5: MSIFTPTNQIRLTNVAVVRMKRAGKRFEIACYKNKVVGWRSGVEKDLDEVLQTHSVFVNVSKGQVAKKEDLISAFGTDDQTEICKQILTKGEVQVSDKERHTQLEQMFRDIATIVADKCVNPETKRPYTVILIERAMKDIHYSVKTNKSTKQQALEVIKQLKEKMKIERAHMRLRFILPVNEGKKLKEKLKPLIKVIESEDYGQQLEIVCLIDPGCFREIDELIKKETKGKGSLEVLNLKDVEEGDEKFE
UniProt P28702: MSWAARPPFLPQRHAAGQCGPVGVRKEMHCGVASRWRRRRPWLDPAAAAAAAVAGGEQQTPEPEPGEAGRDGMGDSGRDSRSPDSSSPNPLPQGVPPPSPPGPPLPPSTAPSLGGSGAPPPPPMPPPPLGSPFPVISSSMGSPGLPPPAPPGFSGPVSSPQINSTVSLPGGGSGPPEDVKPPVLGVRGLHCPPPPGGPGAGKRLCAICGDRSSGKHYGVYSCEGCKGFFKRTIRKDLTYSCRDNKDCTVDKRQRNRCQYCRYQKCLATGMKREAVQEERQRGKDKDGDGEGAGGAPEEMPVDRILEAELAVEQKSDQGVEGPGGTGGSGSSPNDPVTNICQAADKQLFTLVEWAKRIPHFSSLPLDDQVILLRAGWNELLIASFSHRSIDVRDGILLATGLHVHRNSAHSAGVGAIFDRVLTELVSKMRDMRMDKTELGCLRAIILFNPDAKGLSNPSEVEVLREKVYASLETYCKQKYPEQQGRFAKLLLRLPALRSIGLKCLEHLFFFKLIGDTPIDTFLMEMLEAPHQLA

Assays:
Assay in all cases: log2 fold change, soluble protein after heating vs DMSO (PISA); higher = thermal stabilisation; K562 cells, 10 uM, 30 min; active = over 0.2 and 3.5 SD of the protein, either way, in both replicates (recomputed)
bafetinib = compound: Cc1ccc(NC(=O)c2ccc(CN3CC[C@H](N(C)C)C3)c(C(F)(F)F)c2)cc1Nc1nccc(-c2cncnc2)n1 [bafetinib]
How it was run: (§1)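 K562 cells at 2×10^6 cells/mL were given 10 μM compound for 30 min. Aliquots then went through 3 min of heating across 48°C-58°C, were pooled, and were extracted in PBS with 0.5% NP-40 at 4°C, and the supernatant after 21,000xg for 90 min was quantified by TMTpro 16plex LC-MS/MS with channel sums equalised. Thermal stability relative to control samples, from duplicates, is given as log2 fold change.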

[1] = compound: Cc1cccc(CC(=O)N2CCc3c2ccc(-c2cn(C)c4ncnc(N)c24)c3F)n1
How it was run: as §1

nilotinib = compound: Cc1cn(-c2cc(NC(=O)c3ccc(C)c(Nc4nccc(-c5cccnc5)n4)c3)cc(C(F)(F)F)c2)cn1 [nilotinib]
How it was run: as §1

[2] = compound: Cc1nc(Nc2n[nH]c3c2CN(C(=O)N[C@H](CN(C)C)c2ccccc2)C3(C)C)c2sccc2n1
How it was run: as §1

dasatinib = compound: Cc1nc(Nc2ncc(C(=O)Nc3c(C)cccc3Cl)s2)cc(N2CCN(CCO)CC2)n1 [dasatinib]
How it was run: as §1

[3] = compound: Cc1ncc(-c2ccnc(Nc3ccc(S(C)(=O)=O)cc3)n2)n1C(C)C
How it was run: as §1

[4] = compound: Cn1cc(-c2ccc3c(c2)CCN3C(=O)Cc2cccc(C(F)(F)F)c2)c2c(N)ncnc21
How it was run: as §1

[5] = compound: Cn1cc(-c2ccc3nnc(C(F)(F)c4ccc5ncccc5c4)n3n2)cn1
How it was run: as §1

tipifarnib = compound: Cn1cncc1[C@@](N)(c1ccc(Cl)cc1)c1ccc2c(c1)c(-c1cccc(Cl)c1)cc(=O)n2C [tipifarnib]
How it was run: as §1

mubritinib = compound: FC(F)(F)c1ccc(/C=C/c2nc(COc3ccc(CCCCn4ccnn4)cc3)co2)cc1 [mubritinib]
How it was run: as §1

Target	log2 fold change (bafetinib)	log2 fold change [1]	log2 fold change (nilotinib)	log2 fold change [2]	log2 fold change (dasatinib)	log2 fold change [3]	log2 fold change [4]	log2 fold change [5]	log2 fold change (tipifarnib)	log2 fold change (mubritinib)
RSRC1 (UniProt Q96IZ7)	inactive: 0.042	inactive: -0.05	inactive: 0.06	active: -2.01	inactive: 0.028	inactive: -0.024	inactive: 0.003	inactive: -0.021	inactive: 0.038	inactive: 0.012
RSF1 (UniProt Q96T23)	inactive: 0.117	inactive: -0.027	inactive: 0.087	inactive: -0.102	inactive: -0.082	inactive: -0.096	inactive: 0.046	inactive: 0.079	inactive: -0.222	inactive: 0.237
RWDD1 (UniProt Q9H446)	inactive: -0.082	inactive: 0.09	inactive: -0.03	inactive: -0.073	inactive: 0.004	inactive: -0.003	inactive: 0.048	inactive: 0.056	inactive: 0	inactive: 0.027
SBNO1 (UniProt A3KN83)	inactive: -0.048	inactive: 0.004	inactive: -0.004	inactive: 0.013	inactive: -0.068	inactive: 0.022	inactive: 0.038	inactive: -0.011	inactive: -0.06	inactive: 0.038
SDF2L1 (UniProt Q9HCN8)	inactive: 0.014	inactive: 0.008	inactive: 0.033	inactive: 0.023	inactive: 0.024	inactive: -0.048	inactive: -0.069	inactive: 0.018	inactive: 0.022	inactive: -0.061
SARNP (UniProt P82979)	inactive: -0.051	inactive: -0.155	inactive: 0.034	inactive: 0.09	inactive: 0.121	inactive: 0.011	inactive: -0.074	inactive: -0.019	inactive: 0.049	inactive: 0.066
SAE1 (UniProt Q9UBE0)	inactive: -0.021	inactive: 0.015	inactive: 0.041	inactive: -0.019	inactive: -0.011	inactive: 0.004	inactive: -0.008	inactive: 0.019	inactive: -0.06	inactive: 0.127
RRP9 (UniProt O43818)	inactive: -0.02	inactive: -0.103	inactive: 0.046	inactive: -0.042	inactive: 0.106	inactive: -0.107	inactive: -0.062	inactive: -0.102	inactive: 0.074	inactive: -0.046
RSU1 (UniProt Q15404)	inactive: -0.053	inactive: -0.055	inactive: 0.015	inactive: 0.002	inactive: 0.041	inactive: 0	inactive: 0.007	inactive: 0.067	inactive: 0.065	inactive: -0.006
SCRN3 (UniProt Q0VDG4)	inactive: -0.047	inactive: 0.066	inactive: 0.004	inactive: -0.05	inactive: -0.011	inactive: -0.03	inactive: -0.003	inactive: 0.021	inactive: 0.024	inactive: 0.062
SCAMP2 (UniProt O15127)	inactive: -0.113	inactive: -0.125	inactive: 0.084	inactive: -0.107	inactive: -0.027	inactive: 0.058	inactive: 0.11	inactive: 0.062	inactive: -0.061	inactive: 0.046
SCAP (UniProt Q12770)	inactive: -0.029	inactive: -0.058	inactive: -0.033	inactive: 0.08	inactive: 0.022	inactive: 0.047	inactive: 0.011	inactive: 0.042	inactive: -0.001	inactive: 0.011
SCP2 (UniProt P22307)	inactive: -0.016	inactive: -0.001	inactive: 0.046	inactive: 0.026	inactive: 0.022	inactive: -0.027	inactive: 0.061	inactive: 0.014	inactive: 0.004	inactive: 0.035
SCARB1 isoform 2 (UniProt Q8WTV0)	inactive: -0.05	inactive: 0.003	inactive: 0.072	inactive: 0.029	inactive: 0.008	inactive: -0.005	inactive: 0.034	inactive: 0.016	inactive: 0.009	inactive: 0.034
SCCPDH (UniProt Q8NBX0)	inactive: 0.161	inactive: -0.046	inactive: 0.189	inactive: 0.019	inactive: 0.008	inactive: 0.174	inactive: 0.273	inactive: -0.074	active: 0.419	inactive: 0.104
SCFD2 (UniProt Q8WU76)	inactive: 0.056	inactive: 0.114	inactive: -0.013	inactive: -0.004	inactive: -0.028	inactive: 0.02	inactive: -0.053	inactive: -0.037	inactive: -0.038	inactive: -0.047
RTCB (UniProt Q9Y3I0)	inactive: -0.153	inactive: 0.014	inactive: 0.016	inactive: 0.066	inactive: 0.022	inactive: -0.025	inactive: -0.013	inactive: 0.006	inactive: 0.002	inactive: 0.012
SC5D (UniProt O75845)	inactive: -0.011	inactive: -0.032	inactive: 0.007	inactive: 0.024	inactive: 0.008	inactive: -0.033	inactive: 0.083	inactive: 0.074	inactive: 0.034	inactive: 0.062
RTRAF (UniProt Q9Y224)	inactive: 0.047	inactive: -0.032	inactive: 0.008	inactive: 0.045	inactive: 0.005	inactive: -0.011	inactive: -0.087	inactive: 0.005	inactive: 0.03	inactive: -0.06
RTN4IP1 (UniProt Q8WWV3)	inactive: -0.178	inactive: -0.07	inactive: 0.171	inactive: -0.194	inactive: 0.189	inactive: -0.008	inactive: 0.121	inactive: 0.168	inactive: 0.041	inactive: 0.122
SAFB isoform 3 (UniProt Q15424)	inactive: 0.157	inactive: 0	inactive: 0.027	inactive: 0.065	inactive: 0.247	inactive: -0.098	inactive: 0.034	inactive: -0.08	inactive: 0.121	inactive: -0.147
SARG (UniProt Q9BW04)	inactive: -0.041	inactive: 0.034	inactive: 0.043	inactive: 0.045	inactive: 0.016	inactive: -0.051	inactive: 0.013	inactive: 0.034	inactive: 0.02	inactive: 0.001
SCIN (UniProt Q9Y6U3)	inactive: 0.085	inactive: 0.044	inactive: -0.009	inactive: -0.069	inactive: -0.092	inactive: 0.027	inactive: 0.052	inactive: -0.041	inactive: -0.049	inactive: 0.028
SBDS (UniProt Q9Y3A5)	inactive: 0.031	inactive: 0.057	inactive: -0.102	inactive: 0.006	inactive: -0.156	inactive: 0.031	inactive: 0.06	inactive: 0.029	inactive: -0.151	inactive: 0.161
SCYL3 isoform 2 (UniProt Q8IZE3)	inactive: -0.056	inactive: -0.017	inactive: -0.215	inactive: -0.167	inactive: -0.124	inactive: 0.111	inactive: -0.062	inactive: -0.05	inactive: 0.044	inactive: 0.032
SCAF11 (UniProt Q99590)	inactive: 0.173	inactive: -0.144	inactive: 0.078	inactive: -0.007	inactive: 0.144	inactive: 0.379	inactive: -0.05	inactive: -0.03	inactive: 0.067	inactive: 0.052
RRP15 (UniProt Q9Y3B9)	inactive: 0.001	inactive: -0.074	inactive: 0.012	inactive: -0.039	inactive: 0.051	inactive: -0.055	inactive: 0.011	inactive: -0.031	inactive: 0.061	inactive: -0.009
SBF1 isoform 4 (UniProt O95248)	inactive: 0.037	inactive: -0.117	inactive: -0.041	inactive: 0.041	inactive: -0.186	inactive: -0.117	inactive: 0.039	inactive: -0.056	inactive: 0.003	inactive: -0.145
SEC24A (UniProt O95486)	inactive: -0.018	inactive: 0.041	inactive: -0.126	inactive: 0.021	inactive: -0.121	inactive: -0.012	inactive: 0.008	inactive: 0.016	inactive: -0.005	inactive: 0.017
RXRB isoform 3 (UniProt P28702)	inactive: -0.263	–	–	–	–	–	–	–	–	–

Laid out differently: entries from further up.

| Target | log2 fold change (bafetinib) | log2 fold change [1] | log2 fold change (nilotinib) | log2 fold change [2] | log2 fold change (dasatinib) | log2 fold change [3] | log2 fold change [4] | log2 fold change [5] | log2 fold change (tipifarnib) | log2 fold change (mubritinib) |
| --- | --- | --- | --- | --- | --- | --- | --- | --- | --- | --- |
| RWDD1 (UniProt Q9H446) | inactive: -0.082 | inactive: 0.09 | inactive: -0.03 | inactive: -0.073 | inactive: 0.004 | inactive: -0.003 | inactive: 0.048 | inactive: 0.056 | inactive: 0 | inactive: 0.027 |
| SCAP (UniProt Q12770) | inactive: -0.029 | inactive: -0.058 | inactive: -0.033 | inactive: 0.08 | inactive: 0.022 | inactive: 0.047 | inactive: 0.011 | inactive: 0.042 | inactive: -0.001 | inactive: 0.011 |
